PMC13571239

By UniProt entry, the sequences of proteins in these tests, tags left out. Residues count along the entry.
UniProt P25705, residues 44-553: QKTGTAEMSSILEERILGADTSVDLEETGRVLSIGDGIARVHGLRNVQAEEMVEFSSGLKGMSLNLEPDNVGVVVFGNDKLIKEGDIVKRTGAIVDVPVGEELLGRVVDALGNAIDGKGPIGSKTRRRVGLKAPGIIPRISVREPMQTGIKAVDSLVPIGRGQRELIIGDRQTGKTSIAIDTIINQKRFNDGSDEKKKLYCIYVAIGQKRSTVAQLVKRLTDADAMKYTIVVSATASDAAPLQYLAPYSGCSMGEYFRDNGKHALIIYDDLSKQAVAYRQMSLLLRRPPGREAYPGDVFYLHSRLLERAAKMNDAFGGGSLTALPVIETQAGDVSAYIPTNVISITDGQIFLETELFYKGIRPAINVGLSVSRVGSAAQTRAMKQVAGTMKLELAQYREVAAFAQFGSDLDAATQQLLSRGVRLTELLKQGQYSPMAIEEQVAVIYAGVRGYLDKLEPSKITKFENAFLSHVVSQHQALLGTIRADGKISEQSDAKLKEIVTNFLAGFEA

T1: DNA damage-inducible transcript 4-like (DDIT4L) (UniProt Q96D03)
T1 sequence: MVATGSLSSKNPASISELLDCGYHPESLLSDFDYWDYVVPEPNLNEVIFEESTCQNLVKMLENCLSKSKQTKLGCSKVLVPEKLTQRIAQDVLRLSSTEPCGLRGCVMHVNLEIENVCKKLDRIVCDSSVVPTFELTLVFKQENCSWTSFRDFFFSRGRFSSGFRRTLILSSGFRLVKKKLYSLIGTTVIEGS

B1: TOM40 (protein, UniProt O96008 1-361)
chain: MGNVLAASSPPAGPPPPPAPALVGLPPPPPSPPGFTLPPLGGSLGAGTSTSRSSERTPGAATASASGAAEDGACGCLPNPGTFEECHRKCKELFPIQMEGVKLTVNKGLSNHFQVNHTVALSTIGESNYHFGVTYVGTKQLSPTEAFPVLVGDMDNSGSLNAQVIHQLGPGLRSKMAIQTQQSKFVNWQVDGEYRGSDFTAAVTLGNPDVLVGSGILVAHYLQSITPCLALGGELVYHRRPGEEGTVMSLAGKYTLNNWLATVTLGQAGMHATYYHKASDQLQVGVEFEASTRMQDTSVSFGYQLDLPKANLLFKGSVDSNWIVGATLEKKLPPLPLTLALGAFLNHRKNKFQCGFGLTIG

Molecular target: T1, DNA damage-inducible transcript 4-like (DDIT4L)
Test: affinity purification with mass spectrometry; HEK293 cells transfected with DDIT4L; lysate immunoprecipitated with anti-DDIT4L antibody; bands of ~40 and ~50 kDa identified by mass spectrometry

Molecule	binding
ATP5A (from UniProt P25705 44-553)	binds
B1	binds

These are yes or no findings as the source states them, for the method shown. Binding seen in cells or lysates may run through a third protein. A yes stands for co-enrichment or nearness to the bait. Other partners may have been found.
